According to the supplement of paper PMC6078165:

System: MDAMB231
Experiment: relative JC-1 red fluorescence (viability) vs pre-drug, coculture with fibroblast (fraction); higher = more viable cancer cells
Experimental: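 JC-1 labelled TNBC cells cocultured 1:1 (1,500 cells each) with CellTrace Violet stained primary or stromal fibroblasts in 384-well plates in FluoroBrite medium, treated with one of 42 anticancer drugs at 0.1, 1, 10 or 100 uM. JC-1 red fluorescence (mitochondrial integrity in cancer cells only) was read by plate reader every 8 h for 72 h. Values are normalised to each well's pre-drug value. The stock of one drug was tenfold lower, so its dose labels may be too high.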

CCN(CC)CCNC(=O)c1c(C)[nH]c(/C=C2\C(=O)Nc3ccc(F)cc32)c1C [Sunitinib]
relative JC-1 red fluorescence
Conditions | 8 h | 16 h | 24 h | 32 h | 40 h | 48 h | 56 h | 64 h | 72 h
0.1 µM, coculture fibroblast: C12385 | 0.736 | 0.70102 | 0.667 | 0.623 | 0.5594 | 0.541 | 0.503 | 0.51 | 0.491
0.1 µM, coculture fibroblast: H6013 | 0.865 | 0.818 | 0.794 | 0.79 | 0.762 | 0.752 | 0.743 | 0.714 | 0.682
0.1 µM, coculture fibroblast: H6019 | 0.768 | 0.721 | 0.696 | 0.644 | 0.606 | 0.601 | 0.564 | 0.549 | 0.508
0.1 µM, coculture fibroblast: H6076 | 0.854 | 0.803 | 0.761 | 0.751 | 0.716 | 0.681 | 0.657 | 0.6425 | 0.637
0.1 µM, coculture fibroblast: H6231 | 0.898 | 0.808 | 0.747 | 0.696 | 0.65 | 0.614 | 0.58 | 0.56 | 0.541
0.1 µM, coculture fibroblast: HADF | 0.842 | 0.816 | 0.785 | 0.756 | 0.735 | 0.71 | 0.698 | 0.693 | 0.653
0.1 µM, coculture fibroblast: HCFa | 0.875 | 0.833 | 0.799 | 0.757 | 0.715 | 0.6692 | 0.6406 | 0.6147 | 0.58
0.1 µM, coculture fibroblast: HCPF | 0.903 | 0.813 | 0.759 | 0.747 | 0.699 | 0.661 | 0.632 | 0.608 | 0.599
0.1 µM, coculture fibroblast: HHSteC | 0.906 | 0.876 | 0.85 | 0.804 | 0.78 | 0.755 | 0.723 | 0.695 | 0.65
0.1 µM, coculture fibroblast: HMF | 0.854 | 0.7965 | 0.76 | 0.731 | 0.699 | 0.662 | 0.624 | 0.614 | 0.598
0.1 µM, coculture fibroblast: HPFa | 0.928 | 0.882 | 0.847 | 0.7948 | 0.775 | 0.731 | 0.68 | 0.647 | 0.6
0.1 µM, coculture fibroblast: HUF | 0.856 | 0.772 | 0.788 | 0.7 | 0.646 | 0.622 | 0.577 | 0.5703 | 0.5484
0.1 µM, coculture fibroblast: Hs5 | 0.834 | 0.783 | 0.751 | 0.716 | 0.676 | 0.628 | 0.6 | 0.575 | 0.546
0.1 µM, coculture fibroblast: Hs27A | 0.874 | 0.831 | 0.7992 | 0.776 | 0.74 | 0.6923 | 0.682 | 0.662 | 0.614
0.1 µM, coculture fibroblast: Hs343T | 0.8562 | 0.7589 | 0.692 | 0.665 | 0.622 | 0.589 | 0.545 | 0.532 | 0.518
0.1 µM, coculture fibroblast: WS1 | 0.7531 | 0.712 | 0.658 | 0.619 | 0.578 | 0.558 | 0.518 | 0.508 | 0.4874
1 µM, coculture fibroblast: C12385 | 0.735 | 0.728 | 0.708 | 0.687 | 0.615 | 0.599 | 0.569 | 0.579 | 0.56
1 µM, coculture fibroblast: H6013 | 0.884 | 0.8508 | 0.8227 | 0.816 | 0.7883 | 0.757 | 0.754 | 0.735 | 0.69
1 µM, coculture fibroblast: H6019 | 0.788 | 0.731 | 0.7341 | 0.685 | 0.644 | 0.6276 | 0.5939 | 0.582 | 0.541
1 µM, coculture fibroblast: H6076 | 0.871 | 0.844 | 0.842 | 0.834 | 0.806 | 0.774 | 0.76026 | 0.7355 | 0.7359
1 µM, coculture fibroblast: H6231 | 0.9234 | 0.8473 | 0.817 | 0.774 | 0.724 | 0.694 | 0.659 | 0.643 | 0.616
1 µM, coculture fibroblast: HADF | 0.872 | 0.8429 | 0.817 | 0.7992 | 0.783 | 0.755 | 0.757 | 0.748 | 0.713
1 µM, coculture fibroblast: HCFa | 0.901 | 0.837 | 0.815 | 0.8 | 0.77 | 0.738 | 0.721 | 0.7 | 0.663
1 µM, coculture fibroblast: HCPF | 0.8561 | 0.8042 | 0.7715 | 0.7593 | 0.7121 | 0.6923 | 0.6592 | 0.6349 | 0.6178
1 µM, coculture fibroblast: HHSteC | 0.9 | 0.88 | 0.857 | 0.83 | 0.81 | 0.783 | 0.754 | 0.738 | 0.704
1 µM, coculture fibroblast: HMF | 0.906 | 0.908 | 0.781 | 0.792 | 0.728 | 0.768 | 0.73 | 0.748 | 0.672
1 µM, coculture fibroblast: HPFa | 0.845 | 0.94 | 0.913 | 0.876 | 0.869 | 0.845 | 0.8 | 0.792 | 0.752
1 µM, coculture fibroblast: HUF | 0.848 | 0.776 | 0.803 | 0.722 | 0.679 | 0.67 | 0.632 | 0.621 | 0.611
1 µM, coculture fibroblast: Hs5 | 0.8961 | 0.865 | 0.842 | 0.816 | 0.782 | 0.743 | 0.722 | 0.688 | 0.662
1 µM, coculture fibroblast: Hs27A | 0.914 | 0.866 | 0.843 | 0.82 | 0.785 | 0.716 | 0.729 | 0.707 | 0.66
1 µM, coculture fibroblast: Hs343T | 0.905 | 0.85 | 0.822 | 0.782 | 0.738 | 0.692 | 0.644 | 0.624 | 0.599
1 µM, coculture fibroblast: WS1 | 0.731 | 0.712 | 0.661 | 0.655 | 0.613 | 0.595 | 0.559 | 0.555 | 0.537
10 µM, coculture fibroblast: C12385 | 0.789 | 0.829 | 0.725 | 0.793 | 0.759 | 0.753 | 0.734 | 0.737 | 0.731
10 µM, coculture fibroblast: H6013 | 0.925 | 0.881 | 0.847 | 0.772 | 0.709 | 0.644 | 0.581 | 0.492 | 0.436
10 µM, coculture fibroblast: H6019 | 0.829 | 0.82 | 0.7744 | 0.821 | 0.739 | 0.656 | 0.562 | 0.488 | 0.441
10 µM, coculture fibroblast: H6076 | 0.929 | 0.955 | 0.886 | 0.8399 | 0.754 | 0.653 | 0.574 | 0.524 | 0.481
10 µM, coculture fibroblast: H6231 | 0.9803 | 0.9304 | 0.904 | 0.8375 | 0.7713 | 0.68 | 0.555 | 0.478 | 0.386
10 µM, coculture fibroblast: HADF | 0.868 | 0.872 | 0.853 | 0.789 | 0.72 | 0.636 | 0.604 | 0.531 | 0.435
10 µM, coculture fibroblast: HCFa | 0.945 | 0.94224 | 0.9295 | 0.932 | 0.911 | 0.865 | 0.885 | 0.866 | 0.85
10 µM, coculture fibroblast: HCPF | 0.837 | 0.9879 | 0.933 | 0.88 | 0.884 | 0.776 | 0.654 | 0.57 | 0.485
10 µM, coculture fibroblast: HHSteC | 0.92359 | 0.9244 | 0.889 | 0.857 | 0.78 | 0.707 | 0.656 | 0.598 | 0.536
10 µM, coculture fibroblast: HMF | 0.928 | 0.89 | 0.86 | 0.816 | 0.751 | 0.687 | 0.585 | 0.53 | 0.449
10 µM, coculture fibroblast: HPFa | 0.947 | 0.963 | 0.9352 | 0.912 | 0.913 | 0.875 | 0.863 | 0.851 | 0.832
10 µM, coculture fibroblast: HUF | 0.899 | 0.845 | 0.834 | 0.796 | 0.771 | 0.778 | 0.75 | 0.746 | 0.726
10 µM, coculture fibroblast: Hs5 | 0.918 | 0.871 | 0.867 | 0.821 | 0.932 | 0.879 | 0.859 | 0.795 | 0.749
10 µM, coculture fibroblast: Hs27A | 0.9445 | 0.929 | 0.91 | 0.904 | 0.874 | 0.78 | 0.826 | 0.797 | 0.76
10 µM, coculture fibroblast: Hs343T | 0.926 | 0.897 | 0.873 | 0.852 | 0.765 | 0.674 | 0.549 | 0.496 | 0.402
10 µM, coculture fibroblast: WS1 | 0.759 | 0.725 | 0.668 | 0.659 | 0.609 | 0.576 | 0.521 | 0.524 | 0.497
100 µM, coculture fibroblast: C12385 | 0.356 | 0.156 | 0.179 | 0.126 | 0.101 | 0.0919 | 0.072 | 0.0737 | 0.0694
100 µM, coculture fibroblast: H6013 | 0.381 | 0.249 | 0.227 | 0.213 | 0.183 | 0.187 | 0.163 | 0.141 | 0.107
100 µM, coculture fibroblast: H6019 | 0.256 | 0.147 | 0.174 | 0.133 | 0.119 | 0.116 | 0.105 | 0.0963 | 0.0964
100 µM, coculture fibroblast: H6076 | 0.483 | 0.375 | 0.372 | 0.395 | 0.369 | 0.353 | 0.339 | 0.324 | 0.304
100 µM, coculture fibroblast: H6231 | 0.585 | 0.453 | 0.416 | 0.459 | 0.451 | 0.502 | 0.508 | 0.529 | 0.537
100 µM, coculture fibroblast: HADF | 0.461 | 0.294 | 0.27 | 0.239 | 0.219 | 0.226 | 0.204 | 0.181 | 0.145
100 µM, coculture fibroblast: HCFa | 0.579 | 0.298 | 0.262 | 0.239 | 0.22 | 0.221 | 0.21 | 0.191 | 0.164
100 µM, coculture fibroblast: HCPF | 0.545 | 0.359 | 0.318 | 0.329 | 0.288 | 0.273 | 0.246 | 0.231 | 0.213
100 µM, coculture fibroblast: HHSteC | 0.449 | 0.307 | 0.277 | 0.25 | 0.23 | 0.234 | 0.204 | 0.191 | 0.158
100 µM, coculture fibroblast: HMF | 0.514 | 0.358 | 0.329 | 0.324 | 0.288 | 0.246 | 0.229 | 0.211 | 0.198
100 µM, coculture fibroblast: HPFa | 0.805 | 0.375 | 0.304 | 0.262 | 0.259 | 0.254 | 0.222 | 0.208 | 0.183
100 µM, coculture fibroblast: HUF | 0.5234 | 0.284 | 0.297 | 0.242 | 0.205 | 0.201 | 0.166 | 0.156 | 0.14
100 µM, coculture fibroblast: Hs5 | 0.417 | 0.373 | 0.369 | 0.377 | 0.361 | 0.347 | 0.336 | 0.319 | 0.311
100 µM, coculture fibroblast: Hs27A | 0.494 | 0.398 | 0.447 | 0.499 | 0.514 | 0.523 | 0.594 | 0.619 | 0.64
100 µM, coculture fibroblast: Hs343T | 0.575 | 0.401 | 0.383 | 0.403 | 0.378 | 0.351 | 0.347 | 0.323 | 0.283
100 µM, coculture fibroblast: WS1 | 0.246 | 0.185 | 0.21 | 0.192 | 0.199 | 0.218 | 0.21 | 0.219 | 0.221

Values are relative to the signal before dosing, not to a vehicle control; the signal also falls without drug.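 Fibroblast labels denote human fibroblasts, mainly primary ones from uterus (C12385, HUF), lung (H6013), bone (Hs27A), adrenal (HADF) and skin (WS1), plus mammary HMF and breast cancer-associated Hs343T. Cancer cells are basal-like or mesenchymal-like triple-negative breast cancer lines. A hit is a response shift exceeding 3x replicate standard deviation. The tissue of the other fibroblasts is not given here.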
